For at least one compound, name, drawing or mass did not settle the structure.
Test: Stability in PBS buffer or BSA solution
Type: physicochemical
Conditions: after 24 hours, solution at 10 nM in PBS buffer or in a solution at 1 μM of BSA

NC(=O)[C@H](CCC(=O)O)NC(=O)[C@H](CCC(=O)O)NC(=O)CCc1ccc(-c2ccccc2)cc1 [Compound 40, (S)-5-amino-4-((S)-2-(3-(biphenyl-4-yl)propanamido)-4-carboxybutanamido)-5-oxopentanoic acid]
loss of the compound: 50%

Reference: patent US8691753B2 (priority 2009, dated 2014)
